Experimental data published in paper PMC4023949.
Results are given in words; binding and its absence hold for the method and conditions named. In cells and extracts the contact can be indirect. Some binding calls cover weakened binding; strength is not graded here.

The chains behind the UniProt entries cited, without tags or fusion partners.
UniProt P42232: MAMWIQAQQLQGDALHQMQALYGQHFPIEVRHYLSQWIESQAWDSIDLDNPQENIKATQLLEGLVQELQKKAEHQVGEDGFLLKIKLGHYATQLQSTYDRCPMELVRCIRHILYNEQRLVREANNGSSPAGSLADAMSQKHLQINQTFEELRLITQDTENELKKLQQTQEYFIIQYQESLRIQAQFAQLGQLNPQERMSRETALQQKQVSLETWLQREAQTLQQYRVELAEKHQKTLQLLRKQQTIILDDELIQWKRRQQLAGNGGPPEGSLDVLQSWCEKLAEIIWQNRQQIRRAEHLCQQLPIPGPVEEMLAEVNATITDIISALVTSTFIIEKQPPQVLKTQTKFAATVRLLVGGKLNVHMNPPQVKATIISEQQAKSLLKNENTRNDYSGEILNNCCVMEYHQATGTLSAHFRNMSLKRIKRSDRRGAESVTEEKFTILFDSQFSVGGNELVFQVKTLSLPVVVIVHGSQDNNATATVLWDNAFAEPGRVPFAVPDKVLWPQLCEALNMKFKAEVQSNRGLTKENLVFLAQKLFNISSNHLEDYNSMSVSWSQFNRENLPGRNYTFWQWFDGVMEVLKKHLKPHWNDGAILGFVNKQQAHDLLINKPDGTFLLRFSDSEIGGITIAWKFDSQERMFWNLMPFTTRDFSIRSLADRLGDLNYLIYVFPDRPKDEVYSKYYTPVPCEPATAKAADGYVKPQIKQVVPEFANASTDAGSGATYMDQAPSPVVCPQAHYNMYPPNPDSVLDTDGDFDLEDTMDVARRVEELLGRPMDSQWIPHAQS
UniProt P42230: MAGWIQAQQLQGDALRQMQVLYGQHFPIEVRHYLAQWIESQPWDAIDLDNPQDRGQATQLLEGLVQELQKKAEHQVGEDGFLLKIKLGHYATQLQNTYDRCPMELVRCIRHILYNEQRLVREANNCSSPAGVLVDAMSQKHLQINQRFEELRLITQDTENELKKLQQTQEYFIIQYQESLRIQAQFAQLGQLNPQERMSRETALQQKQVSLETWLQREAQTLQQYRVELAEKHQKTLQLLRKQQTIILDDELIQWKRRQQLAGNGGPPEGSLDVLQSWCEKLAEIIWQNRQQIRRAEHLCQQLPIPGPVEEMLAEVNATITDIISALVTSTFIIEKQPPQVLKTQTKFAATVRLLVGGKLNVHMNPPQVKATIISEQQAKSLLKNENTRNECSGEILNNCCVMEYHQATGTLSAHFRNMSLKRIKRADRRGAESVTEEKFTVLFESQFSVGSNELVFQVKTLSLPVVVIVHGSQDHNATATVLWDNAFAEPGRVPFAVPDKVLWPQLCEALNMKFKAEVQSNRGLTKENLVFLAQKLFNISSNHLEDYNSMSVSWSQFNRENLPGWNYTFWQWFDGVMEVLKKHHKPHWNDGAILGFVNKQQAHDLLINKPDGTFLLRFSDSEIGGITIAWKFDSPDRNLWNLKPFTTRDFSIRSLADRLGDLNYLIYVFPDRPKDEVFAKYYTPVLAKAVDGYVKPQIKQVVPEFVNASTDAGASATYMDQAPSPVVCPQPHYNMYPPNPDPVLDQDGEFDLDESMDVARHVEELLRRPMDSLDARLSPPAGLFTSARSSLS

Columns and labels:
[1] = target: STAT5B (endogenous, TonB cells) (mouse (endogenous in TonB)) (UniProt P42232); test: co-IP; endogenous proteins from TonB whole cell lysates; RIPA buffer with inhibitors, isoform-specific anti-STAT5A or anti-STAT5B antibody and Protein A/G Plus-Agarose overnight; western blot for the other isoform and for phosphotyrosine; cells cultured with IL-3, BCR-ABL (doxycycline), IL-3 plus BCR-ABL, or re-stimulated with IL-3 for 30 minutes after starvation
[2] = target: STAT5A (endogenous, TonB cells) (mouse (endogenous in TonB)) (UniProt P42230); test: as above
[3] = target: STAT5A (endogenous, TonB cells) (mouse (endogenous in TonB)) (UniProt P42230); test: condition: only cells starved of IL-3 overnight, BCR-ABL not induced; co-IP; as a1, but cells starved overnight by withdrawal of IL-3 (Starvation), BCR-ABL not induced
[4] = target: epitope-tagged STAT5A (murine) (UniProt P42230); test: co-IP; epitope-tagged STAT5A and STAT5B variants over-expressed in TonB cells (Figure S4A); details in the supplement, not shown
[5] = target: epitope-tagged STAT5B (murine) (UniProt P42232); test: as above

Substance: STAT5A (endogenous, TonB cells) (from UniProt P42230 1-793)
- binding [1]: binds

Substance: STAT5B (endogenous, TonB cells) (from UniProt P42232 1-786)
- binding [2]: binds
- binding [3]: no binding

Substance: epitope-tagged STAT5A (from UniProt P42230 1-793)
- binding [4]: binds

Substance: epitope-tagged STAT5B (from UniProt P42232 1-786)
- binding [5]: binds
